Taken from: PubChem BioAssay AID1259254 (NCATS, 2017)

- Purpose: 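Genome-wide screen for genes that prevent DNA re-replication in cancer cells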 (primary screen)
- System: human HCT116 colorectal cancer cells
- Reagent: single siRNA against human genes
- Time to read-out: 3 days
- Read-out: 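Imaged Hoechst DNA stain sorts each cell into a cycle phase by DNA amount; per plate, G2 fraction set to 0% for non-targeting and 100% for GMNN siRNA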
- Direction: G2 robust z-score and G2 cells, % of GMNN control: higher = more G2 cells, more excess DNA replication
- Rule for the call: 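Active siRNAs have a G2 robust z of 5 or more median absolute deviations over the median, which in these data means about 38% or higher of GMNN control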
Shown is a random part of about 59,000 deposited reagents. About 1,550 of all reagents (2.6%) were called active. 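G2 share is only a proxy for re-replication; each gene was hit by three separate siRNAs, and active genes were retested.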 Entries without a mark were called inactive. Reagents against one gene are numbered here. Not all columns of the deposit are shown. Not given: the amount of reagent.

Gene,reagent,G2 robust z-score,"G2 cells, % of GMNN control"
NHEJ1,1,-0.997,-4.05
NHEJ1,2,4.44,34.2
NHEJ1,3,-0.497,-0.53
OPALIN,1,-0.58,-1.12
OPALIN,2,1.54,13.8
OPALIN,3,-0.0428,2.67
DDX19A,1,-0.00433,2.94
DDX19A,2,0.0887,3.59
DDX19A,3,1.05,10.3
FAM227A,1,-0.479,-0.405
FAM227A,2,1.99,16.9
FAM227A,3,0.676,7.72
SUPV3L1,1,-1.79,-9.65
SUPV3L1,2,-0.188,1.65
SUPV3L1,3,-0.714,-2.05
DGKH,1,7.66 (active),56.8
DGKH,2,1.49,13.5
DGKH,3,-0.496,-0.522
OR4D2,1,0.552,6.85
OR4D2,2,1.81,15.7
OR4D2,3,1.4,12.8
CXCL3,1,0.5,6.49
CXCL3,2,-0.334,0.621
CXCL3,3,3.29,26.1
FAM24B,1,0.203,4.39
FAM24B,2,0.417,5.9
FAM24B,3,0.822,8.75
RPLP1P5,1,2.34,19.5
RPLP1P5,2,-0.0805,2.4
RPLP1P5,3,-0.475,-0.376
METTL26,1,0.396,5.75
METTL26,2,-0.826,-2.84
METTL26,3,-0.224,1.39
CIMIP5,1,0.541,6.77
CIMIP5,2,-0.89,-3.3
CIMIP5,3,-0.152,1.9
MRGPRG,1,0.0604,3.39
MRGPRG,2,1.81,15.7
MRGPRG,3,0.765,8.35
TAF11L1,1,-0.527,-0.739
TAF11L1,2,-0.892,-3.31
TAF11L1,3,-0.412,0.0669
ENKD1,1,1.73,15.1
ENKD1,2,-0.988,-3.98
ENKD1,3,-0.202,1.55
PDSS2,1,-0.251,1.2
PDSS2,2,-0.925,-3.54
PDSS2,3,0.624,7.36

Reagents listed above with an active call, once more:
Gene,reagent,G2 robust z-score,"G2 cells, % of GMNN control"
DGKH,1,7.66 (active),56.8
